From paper PMC9170038, “Crowdsourced RNA design discovers diverse, reversible, efficient, self-contained molecular switches”
Protein sequences can lack the tags named with them.

Target: T1, MS2 coat protein, dlFG mutant del68-81insG (Escherichia phage MS2) (UniProt P03612)
T1 sequence (looked up, limits assumed): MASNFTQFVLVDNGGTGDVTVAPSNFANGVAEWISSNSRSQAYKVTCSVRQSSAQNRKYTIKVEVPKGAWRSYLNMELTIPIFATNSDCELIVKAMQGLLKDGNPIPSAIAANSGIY
Test: binding assay
Settings: 4 mM Mg2+, FMN 200 uM; RNA-MaP array; 100 mM Tris-HCl pH 7.5, 80 mM KCl, 4 mM MgCl2, 0.1 mg/mL BSA, 1 mM DTT, 0.01 mg/mL yeast tRNA, 0.01% Tween-20; protein 1.5 nM to 3 uM; 37 C (Table S3); purified recombinant protein

Kd, > 3000 nM:
AAAAGGCAUCGUGACAUGAGGAUCACCCAUGUGAUUUGCUCACAGGAUAUCAUGCUCACGGAGCCUGAGAAGGGUGAAAGCUAA [Eterna 6148979 (Same State NG 3)], GACUCGAAUGUAGGAUAUGCUGAGGAAUACUCAGCAGAAGGACAUGAGGAUCACCCAUGUAAAUGAGUGAAUAAUAAACGAGUC [Eterna 6090265 (Exclusion NG 1)]

Same assay, conditions: 4 mM Mg2+, no ligand; RNA-MaP array; 100 mM Tris-HCl pH 7.5, 80 mM KCl, 4 mM MgCl2, 0.1 mg/mL BSA, 1 mM DTT, 0.01 mg/mL yeast tRNA, 0.01% Tween-20; protein 1.5 nM to 3 uM; 37 C (Table S3); purified recombinant protein

Kd, > 3000 nM:
ACUUGCUUGCAGAAGGGUGACAUGAGGAUCACCCAUGUAGCGGGCCGGCGUAAAGUCAGCGCGCCACAGGAUAUGCAGGCCUCG [Eterna 6416943 (Inverted Same State NG 2)], AGCCACUCGAGUGAUCCUCACGAGUGGCUACGAGGACCGGUACGGCCGCCACUCGAAUUAACAUGAGGAUCACCCAUGUAAUCAU [Eterna 7638954 (Same State - Tryptophan A)], GGUUAUAUAACAUGAGGAUCACCCAUGUGAGUGGUCCGAAUAUAGGAUAUCCACACGAGAAGUGUGGAGAAGGAUAAUUUAUUA [Eterna 6133184 (Exclusion NG 3)], GUUGGUGUAGAAGGAUAUUGGUGAGGCGUCUUGUACAUGAGGAUCACCCAUGUCAUUCUGCACGCCGAGAAGGUCUGCAAUUGG [Eterna 6148683 (Same State NG 2)], UAUGAAUAGCAAGGAUAUUGAUAACAUGAGGAUCACCCAUGUAAUUGAUCGAGUUAGAUCAGUUACAAGAAGGUGCAAUUGAUU [Eterna 5855586 (Same State NG 2)], UUCUUGGCAGGAUAUGCUUUUUUAGACAUGAGGAUCACCCAUGUGUUUAUUUUUUUUUUUGCAGAAGGGCCUUAAU [Eterna 14471 (Exclusion 5)]

Same assay, conditions: 4 mM Mg2+, no ligand; RNA-MaP array; 100 mM Tris-HCl pH 7.5, 80 mM KCl, 4 mM MgCl2, 0.1 mg/mL BSA, 1 mM DTT, 0.01 mg/mL yeast tRNA, 0.01% Tween-20; protein 1.5 nM to 3 uM; 37 C (Table S3); purified recombinant protein; variant of MS2 control

Kd, > 3000 nM:
UGACAUUGCUCAGAUACCAGACAGGAGGAUCACUCCUGUGCCAACAAGUACAAAAUAAAUGUCCCUUGGCAGCUGAGCAAUGUCU [Eterna 7670674 (Exclusion - Theophylline B)]
